Measurements taken from the supplement of paper PMC10470496.
Structures can show the parent of a compound that is named as a salt. The list shows a part of the results. Single values are uncertain, as repeats are few or missing.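 Three clinical Candida auris isolates (clades III, IV and I) from the CDC resistance isolate bank were grown in RPMI-1640 at 35°C. Growth was background-corrected OD600 relative to same-plate vehicle-only wells. Hits required over 50% inhibition in at least two strains and a plate-corrected B-score above 0.1.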

System: C. auris AR-387
Experiment: growth relative to vehicle control (OD600 ratio) (fraction); higher = less inhibition
Details: 10 µM; 24 h

SMILES	growth
O=C(O)c1cc(=O)c2c(OCC(O)COc3cccc4oc(C(=O)O)cc(=O)c34)cccc2o1 [Disodium Cromoglycate]	0.94
CC1CCC(C(C)C)C(O)C1 (single isomer, unassigned; (-)) [(-)-Menthol]	0.99
C[C@H](Cc1cc2c(c(C(N)=O)c1)N(CCCO)CC2)NCCOc1ccccc1OCC(F)(F)F [Silodosin]	1.01
CC(C(=O)O)c1ccc(-c2ccccc2)c(F)c1 (configuration not stated) [Flurbiprofen]	1.07
CCOC(=O)C1=C(C)NC(C)=C(C(=O)OC)C1c1cccc(Cl)c1Cl (configuration not stated) [Felodipine]	1.22
CCC(NC(C)C)C(O)c1ccc(O)c(O)c1 (configuration not stated) [Isoetharine Mesylate]	0.75
CCOC(=O)C1=C(C)NC(C)=C(C(=O)OCC)C1c1ccccc1/C=C/C(=O)OC(C)(C)C [Lacidipine]	0.86
